Assay: Hot Process Liquid Simulator (HLPS) test heat exchanger, rod deposits at 500° F.
Details: 24 ppmA

## CCC(C)Nc1ccc(NC(C)CC)cc1 (centres unmarked) [Compound #1]
  Deposit Weight (rod deposits): 0.4 mg

## CC(C)CC(C)N=C1C=CC(=Nc2ccccc2)C=C1 (centres unmarked) [Compound #4]
  Deposit Weight (rod deposits): 0.1 mg

Reference: US6384249B1, “Compounds and methods for stabilization of furfural compositions” (Hercules, Inc., priority 2000, dated 2002)
